# ± gives the standard deviation of the averaged measurements. The list shows a part of the results, in another mix than the full data. Small differences around the control level are noise.
# Chains of the proteins cited; added tags and fusions are not shown. Lines headed by an entry give the natural chain unless they say otherwise; changes in a name come on top.
# UniProt Q9BYV9: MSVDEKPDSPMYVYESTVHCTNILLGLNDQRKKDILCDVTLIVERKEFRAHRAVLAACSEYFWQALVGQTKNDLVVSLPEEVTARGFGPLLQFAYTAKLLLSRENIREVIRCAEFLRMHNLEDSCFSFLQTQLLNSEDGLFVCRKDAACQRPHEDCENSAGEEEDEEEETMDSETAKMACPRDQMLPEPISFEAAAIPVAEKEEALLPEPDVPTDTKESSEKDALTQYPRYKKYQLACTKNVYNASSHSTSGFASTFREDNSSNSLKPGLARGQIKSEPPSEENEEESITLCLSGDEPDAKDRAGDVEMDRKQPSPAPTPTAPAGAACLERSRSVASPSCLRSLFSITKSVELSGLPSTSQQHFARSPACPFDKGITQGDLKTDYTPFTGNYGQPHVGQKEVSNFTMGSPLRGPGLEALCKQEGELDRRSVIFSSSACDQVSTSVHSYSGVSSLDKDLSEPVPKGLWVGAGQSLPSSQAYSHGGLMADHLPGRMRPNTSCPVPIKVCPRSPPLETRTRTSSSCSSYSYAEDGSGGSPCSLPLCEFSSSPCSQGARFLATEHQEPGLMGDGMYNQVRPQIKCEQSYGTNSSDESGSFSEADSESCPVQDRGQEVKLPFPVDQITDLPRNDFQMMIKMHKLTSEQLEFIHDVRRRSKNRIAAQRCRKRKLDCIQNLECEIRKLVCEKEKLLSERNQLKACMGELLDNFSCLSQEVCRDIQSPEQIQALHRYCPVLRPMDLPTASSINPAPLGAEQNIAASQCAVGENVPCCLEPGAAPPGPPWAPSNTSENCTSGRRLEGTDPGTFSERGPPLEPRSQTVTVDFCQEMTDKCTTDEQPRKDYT
# UniProt Q9BSR8: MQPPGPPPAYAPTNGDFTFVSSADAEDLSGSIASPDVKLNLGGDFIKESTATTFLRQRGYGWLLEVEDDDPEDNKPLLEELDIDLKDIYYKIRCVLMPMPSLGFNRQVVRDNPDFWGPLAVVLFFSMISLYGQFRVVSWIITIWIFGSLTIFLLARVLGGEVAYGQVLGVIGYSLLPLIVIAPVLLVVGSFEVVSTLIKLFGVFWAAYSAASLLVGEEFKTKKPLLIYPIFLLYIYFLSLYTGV
# UniProt Q9BVP2: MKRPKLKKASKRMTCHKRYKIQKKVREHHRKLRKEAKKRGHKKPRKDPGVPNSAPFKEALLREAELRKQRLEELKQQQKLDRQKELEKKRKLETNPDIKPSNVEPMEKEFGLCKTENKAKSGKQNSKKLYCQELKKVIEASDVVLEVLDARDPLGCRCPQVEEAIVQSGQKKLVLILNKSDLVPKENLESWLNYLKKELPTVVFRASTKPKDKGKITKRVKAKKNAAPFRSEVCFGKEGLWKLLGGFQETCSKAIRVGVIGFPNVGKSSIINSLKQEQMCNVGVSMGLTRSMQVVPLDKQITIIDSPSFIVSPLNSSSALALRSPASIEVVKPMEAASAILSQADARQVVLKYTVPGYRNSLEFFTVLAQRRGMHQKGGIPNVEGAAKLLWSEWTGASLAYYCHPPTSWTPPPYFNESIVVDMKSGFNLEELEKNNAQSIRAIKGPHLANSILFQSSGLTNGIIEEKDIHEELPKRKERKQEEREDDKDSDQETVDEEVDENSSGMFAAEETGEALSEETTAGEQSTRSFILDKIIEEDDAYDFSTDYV
# UniProt Q9BQ75: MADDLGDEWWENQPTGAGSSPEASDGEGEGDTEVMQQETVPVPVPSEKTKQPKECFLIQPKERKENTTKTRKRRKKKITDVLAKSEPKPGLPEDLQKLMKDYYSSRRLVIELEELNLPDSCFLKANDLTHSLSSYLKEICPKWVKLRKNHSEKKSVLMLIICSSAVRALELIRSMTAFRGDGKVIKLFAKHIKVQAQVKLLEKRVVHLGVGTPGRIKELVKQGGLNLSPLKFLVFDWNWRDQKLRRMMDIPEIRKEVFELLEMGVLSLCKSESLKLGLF
# UniProt Q9BYM8: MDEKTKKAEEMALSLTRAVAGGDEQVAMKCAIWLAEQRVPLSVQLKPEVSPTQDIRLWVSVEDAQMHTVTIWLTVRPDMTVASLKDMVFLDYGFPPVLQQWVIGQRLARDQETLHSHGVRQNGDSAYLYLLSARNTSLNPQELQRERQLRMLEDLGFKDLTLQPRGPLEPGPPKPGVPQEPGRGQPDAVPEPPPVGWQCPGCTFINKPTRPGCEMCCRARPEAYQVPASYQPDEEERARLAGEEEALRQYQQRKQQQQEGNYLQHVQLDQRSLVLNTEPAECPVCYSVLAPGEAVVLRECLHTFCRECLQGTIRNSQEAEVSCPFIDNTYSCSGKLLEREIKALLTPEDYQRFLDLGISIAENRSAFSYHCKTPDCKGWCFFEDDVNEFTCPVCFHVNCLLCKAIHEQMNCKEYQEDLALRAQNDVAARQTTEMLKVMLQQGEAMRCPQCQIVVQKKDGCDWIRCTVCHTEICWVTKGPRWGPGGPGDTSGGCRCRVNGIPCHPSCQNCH
# UniProt Q9BX67: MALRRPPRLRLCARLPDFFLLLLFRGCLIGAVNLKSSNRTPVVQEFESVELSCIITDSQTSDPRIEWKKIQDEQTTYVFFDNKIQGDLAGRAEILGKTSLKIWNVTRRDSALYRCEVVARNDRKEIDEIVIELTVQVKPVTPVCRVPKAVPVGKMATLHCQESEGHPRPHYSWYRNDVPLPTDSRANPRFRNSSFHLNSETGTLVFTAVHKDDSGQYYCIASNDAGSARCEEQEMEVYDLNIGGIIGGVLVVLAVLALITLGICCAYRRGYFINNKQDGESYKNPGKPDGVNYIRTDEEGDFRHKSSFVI
# UniProt Q9BWE0: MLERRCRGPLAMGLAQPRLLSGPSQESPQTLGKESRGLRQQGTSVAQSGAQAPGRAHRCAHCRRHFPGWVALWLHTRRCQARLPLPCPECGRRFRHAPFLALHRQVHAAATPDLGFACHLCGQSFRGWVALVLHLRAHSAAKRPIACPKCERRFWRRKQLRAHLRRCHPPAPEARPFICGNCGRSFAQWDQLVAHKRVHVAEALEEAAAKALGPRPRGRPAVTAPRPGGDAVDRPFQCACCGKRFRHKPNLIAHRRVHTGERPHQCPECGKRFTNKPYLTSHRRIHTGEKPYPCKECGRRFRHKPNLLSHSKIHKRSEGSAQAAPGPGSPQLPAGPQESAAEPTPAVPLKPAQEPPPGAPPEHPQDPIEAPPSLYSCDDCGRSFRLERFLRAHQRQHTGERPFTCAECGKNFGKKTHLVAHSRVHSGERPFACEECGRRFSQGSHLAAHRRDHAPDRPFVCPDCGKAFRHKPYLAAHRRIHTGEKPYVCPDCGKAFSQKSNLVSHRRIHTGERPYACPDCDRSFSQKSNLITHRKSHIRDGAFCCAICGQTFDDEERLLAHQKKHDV
# UniProt Q9BV86: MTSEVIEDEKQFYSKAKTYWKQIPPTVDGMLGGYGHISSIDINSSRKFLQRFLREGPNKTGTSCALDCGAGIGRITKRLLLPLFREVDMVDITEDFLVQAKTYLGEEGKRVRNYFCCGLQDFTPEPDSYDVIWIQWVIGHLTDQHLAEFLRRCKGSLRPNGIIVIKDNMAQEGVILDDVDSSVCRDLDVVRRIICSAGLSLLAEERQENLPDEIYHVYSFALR
# UniProt Q9BUR4: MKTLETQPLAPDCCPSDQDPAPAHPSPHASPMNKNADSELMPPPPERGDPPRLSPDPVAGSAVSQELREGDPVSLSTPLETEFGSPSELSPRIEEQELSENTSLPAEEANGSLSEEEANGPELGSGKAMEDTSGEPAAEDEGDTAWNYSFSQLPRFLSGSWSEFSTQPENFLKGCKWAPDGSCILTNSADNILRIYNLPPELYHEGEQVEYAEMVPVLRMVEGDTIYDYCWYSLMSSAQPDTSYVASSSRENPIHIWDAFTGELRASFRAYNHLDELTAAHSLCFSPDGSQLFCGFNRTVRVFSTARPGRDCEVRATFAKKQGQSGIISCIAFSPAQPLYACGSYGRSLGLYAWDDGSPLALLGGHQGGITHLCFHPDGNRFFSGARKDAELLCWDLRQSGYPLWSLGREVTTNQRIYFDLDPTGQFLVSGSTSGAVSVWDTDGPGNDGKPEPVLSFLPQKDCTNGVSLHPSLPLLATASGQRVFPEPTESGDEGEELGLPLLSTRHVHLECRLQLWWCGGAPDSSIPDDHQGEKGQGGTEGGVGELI
# UniProt Q9BVC5: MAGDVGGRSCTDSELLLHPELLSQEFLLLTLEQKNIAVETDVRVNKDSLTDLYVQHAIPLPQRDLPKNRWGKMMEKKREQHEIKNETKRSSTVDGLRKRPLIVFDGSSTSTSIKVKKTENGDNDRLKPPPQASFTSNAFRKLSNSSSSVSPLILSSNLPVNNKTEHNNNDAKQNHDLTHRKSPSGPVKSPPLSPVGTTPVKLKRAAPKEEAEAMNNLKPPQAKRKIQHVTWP
# UniProt Q9BWG4: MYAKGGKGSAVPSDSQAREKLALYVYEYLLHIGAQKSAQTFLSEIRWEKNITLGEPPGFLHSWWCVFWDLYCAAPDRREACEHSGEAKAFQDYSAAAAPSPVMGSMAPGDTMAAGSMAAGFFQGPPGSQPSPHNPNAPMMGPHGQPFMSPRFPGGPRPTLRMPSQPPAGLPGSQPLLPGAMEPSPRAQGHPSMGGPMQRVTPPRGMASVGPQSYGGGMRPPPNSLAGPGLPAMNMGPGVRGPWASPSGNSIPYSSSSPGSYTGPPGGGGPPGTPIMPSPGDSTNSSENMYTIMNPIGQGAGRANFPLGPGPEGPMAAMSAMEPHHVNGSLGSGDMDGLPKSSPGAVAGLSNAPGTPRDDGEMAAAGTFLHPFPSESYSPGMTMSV
# UniProt Q9BSY9: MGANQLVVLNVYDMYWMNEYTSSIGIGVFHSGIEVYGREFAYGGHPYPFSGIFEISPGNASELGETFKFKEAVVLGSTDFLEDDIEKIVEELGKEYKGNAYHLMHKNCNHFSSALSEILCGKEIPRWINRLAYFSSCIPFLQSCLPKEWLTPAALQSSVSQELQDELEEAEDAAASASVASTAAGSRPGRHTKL
# UniProt Q9BVI0: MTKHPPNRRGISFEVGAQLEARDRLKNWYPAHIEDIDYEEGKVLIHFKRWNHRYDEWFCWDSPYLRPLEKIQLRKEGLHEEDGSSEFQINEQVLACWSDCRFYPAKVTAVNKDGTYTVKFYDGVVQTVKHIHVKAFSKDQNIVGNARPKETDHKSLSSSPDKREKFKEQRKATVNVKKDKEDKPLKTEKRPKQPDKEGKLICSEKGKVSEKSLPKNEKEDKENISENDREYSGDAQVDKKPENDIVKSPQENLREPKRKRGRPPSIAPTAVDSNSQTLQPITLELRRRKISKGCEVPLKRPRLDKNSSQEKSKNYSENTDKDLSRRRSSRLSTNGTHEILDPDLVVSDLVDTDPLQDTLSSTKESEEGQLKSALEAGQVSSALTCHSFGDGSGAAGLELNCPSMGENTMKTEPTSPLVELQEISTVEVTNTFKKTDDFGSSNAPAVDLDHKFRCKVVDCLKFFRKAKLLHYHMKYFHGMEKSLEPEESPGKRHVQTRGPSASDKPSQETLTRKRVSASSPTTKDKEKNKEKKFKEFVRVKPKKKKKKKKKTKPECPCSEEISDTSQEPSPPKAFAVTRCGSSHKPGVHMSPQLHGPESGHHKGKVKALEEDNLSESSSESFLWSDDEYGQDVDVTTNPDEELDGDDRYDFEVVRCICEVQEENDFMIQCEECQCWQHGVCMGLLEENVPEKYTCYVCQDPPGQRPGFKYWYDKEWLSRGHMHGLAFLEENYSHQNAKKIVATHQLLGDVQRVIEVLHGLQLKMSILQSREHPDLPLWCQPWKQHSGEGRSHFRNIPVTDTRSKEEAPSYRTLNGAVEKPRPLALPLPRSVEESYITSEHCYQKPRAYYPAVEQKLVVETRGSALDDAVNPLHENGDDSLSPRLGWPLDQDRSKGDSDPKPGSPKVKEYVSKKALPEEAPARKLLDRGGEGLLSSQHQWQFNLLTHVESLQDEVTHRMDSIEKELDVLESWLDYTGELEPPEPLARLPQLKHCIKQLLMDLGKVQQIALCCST
# UniProt Q9BU89: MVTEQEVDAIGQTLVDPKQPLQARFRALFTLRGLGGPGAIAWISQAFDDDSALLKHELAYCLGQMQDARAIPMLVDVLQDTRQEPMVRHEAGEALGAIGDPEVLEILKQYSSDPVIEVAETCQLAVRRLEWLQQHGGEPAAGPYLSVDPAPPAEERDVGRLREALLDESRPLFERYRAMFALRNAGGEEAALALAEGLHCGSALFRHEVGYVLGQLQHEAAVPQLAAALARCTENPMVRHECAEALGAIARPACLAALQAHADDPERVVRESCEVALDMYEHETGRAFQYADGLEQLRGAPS
# UniProt Q9BY43: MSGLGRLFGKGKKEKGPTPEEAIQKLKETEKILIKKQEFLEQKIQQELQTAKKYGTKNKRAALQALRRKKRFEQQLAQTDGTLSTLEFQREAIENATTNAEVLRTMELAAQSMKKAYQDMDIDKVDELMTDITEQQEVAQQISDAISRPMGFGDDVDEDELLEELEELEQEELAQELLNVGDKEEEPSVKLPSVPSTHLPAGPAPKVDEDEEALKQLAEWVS
# Compound: Nc1ncnc2c1ncn2[C@@H]1O[C@H](COP(=O)(O)OP(=O)(O)OP(=O)(O)O)[C@@H](O)[C@H]1O [adenosine triphosphate]
# Assay: NP40-soluble protein abundance relative to vehicle (solubility fold change) (ratio); higher = more soluble protein in presence of ATP
# Conditions: concentration: 0.1mM
# Method in brief: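 Jurkat crude lysate (Dounce-homogenised) was treated with eight concentrations from 0.1 to 10 mM for 10 min at room temperature, then 3 min at 37 °C. It was solubilised with 0.8% NP40 and benzonase (60 min, 4 °C) and ultracentrifuged, and the supernatant was TMT-labelled for LC-MS/MS. Intensities were vsn-normalised, and the value is the fold change against the NP40-processed vehicle per replicate, from three independent experiments.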
row,Target,NP40-soluble protein abundance
1,KLF16 (UniProt Q9BXK1),0.9 ± 0.18
2,BACH2 (UniProt Q9BYV9),1.03 ± 0.1
3,UniProt Q9BSR8 and related entries,0.961 ± 0.021
4,UniProt Q9BSH4,0.99 ± 0.068
5,UniProt Q9BYG3,1.02 ± 0.071
6,UniProt Q9BRP8-2|Q9BRP8,0.934 ± 0.11
7,UniProt Q9BVP2 and related entries,1.15 ± 0.097
8,UniProt Q9BQ75 and related entries,0.947 ± 0.05
9,ITPA (UniProt Q9BY32),1.06 ± 0.069
10,RBCK1 (UniProt Q9BYM8),1.02 ± 0.065
11,UniProt Q9BX67,0.99 ± 0.059
12,NCAPG (UniProt Q9BPX3),0.989 ± 0.015
13,PDCD2L (UniProt Q9BRP1),1.05 ± 0.051
14,UniProt Q9C035 and related entries,0.986 ± 0.07
15,UniProt Q9BTA9 and related entries,0.964 ± 0.048
16,CPPED1 (UniProt Q9BRF8),1.03 ± 0.076
17,UniProt Q9BZ95 and related entries,1.06 ± 0.072
18,MAK16 (UniProt Q9BXY0),0.984 ± 0.073
19,UniProt Q9BTE3 and related entries,1.05 ± 0.048

row,Target,NP40-soluble protein abundance
1,UniProt Q9BTY7,0.957 ± 0.12
2,UniProt Q9BQC6,0.98 ± 0.076
3,UniProt Q9BWU1,0.971 ± 0.09
4,MRI1 (UniProt Q9BV20),1.02 ± 0.071
5,UniProt Q99708-3|I6L8A6 and related entries,0.939 ± 0.037
6,UHRF1 (UniProt Q96T88),1.04 ± 0.025
7,UniProt Q9BWE0 and related entries,0.98 ± 0.042
8,UniProt Q9BV86,1.05 ± 0.07
9,RAB11FIP5 (UniProt Q9BXF6),1.18 ± 0.21
10,UniProt Q9BUR4,1.04 ± 0.012
11,UniProt Q9BVC5 and related entries,0.974 ± 0.04
12,UniProt Q99714 and related entries,0.9845 ± 0.0067
13,OSBPL11 (UniProt Q9BXB4),1.04 ± 0.015
14,UniProt Q9BWG4 and related entries,1.03 ± 0.094
15,DESI2 (UniProt Q9BSY9),1.01 ± 0.054
16,PHF20 (UniProt Q9BVI0),1.02 ± 0.045
17,SORT1 (UniProt Q99523),0.955 ± 0.02
18,DOHH (UniProt Q9BU89),0.923 ± 0.079
19,UniProt Q9BY43 and related entries,1.06 ± 0.12

# Same assay, conditions: concentration: 0.5mM
row,Target,NP40-soluble protein abundance
1,KLF16 (UniProt Q9BXK1),0.892 ± 0.18
2,BACH2 (UniProt Q9BYV9),1.05 ± 0.053
3,UniProt Q9BSR8 and related entries,1.05 ± 0.13
4,UniProt Q9BSH4,0.99 ± 0.033
5,UniProt Q9BYG3,1.07 ± 0.051
6,UniProt Q9BRP8-2|Q9BRP8,0.911 ± 0.13
7,UniProt Q9BVP2 and related entries,1.23 ± 0.078
8,UniProt Q9BQ75 and related entries,0.936 ± 0.096
9,ITPA (UniProt Q9BY32),1.02 ± 0.092
10,RBCK1 (UniProt Q9BYM8),1.01 ± 0.074
11,UniProt Q9BX67,1 ± 0.033
12,NCAPG (UniProt Q9BPX3),1.01 ± 0.051
13,PDCD2L (UniProt Q9BRP1),1.02 ± 0.067
14,UniProt Q9C035 and related entries,0.976 ± 0.056
15,UniProt Q9BTA9 and related entries,0.94 ± 0.028
16,CPPED1 (UniProt Q9BRF8),1.06 ± 0.082
17,UniProt Q9BZ95 and related entries,1.18 ± 0.056
18,MAK16 (UniProt Q9BXY0),1.05 ± 0.089
19,UniProt Q9BTE3 and related entries,1.07 ± 0.056

row,Target,NP40-soluble protein abundance
1,UniProt Q9BTY7,0.911 ± 0.12
2,UniProt Q9BQC6,0.893 ± 0.13
3,UniProt Q9BWU1,0.996 ± 0.045
4,MRI1 (UniProt Q9BV20),1.02 ± 0.053
5,UniProt Q99708-3|I6L8A6 and related entries,0.963 ± 0.046
6,UHRF1 (UniProt Q96T88),1.07 ± 0.036
7,UniProt Q9BWE0 and related entries,0.947 ± 0.054
8,UniProt Q9BV86,0.985 ± 0.078
9,RAB11FIP5 (UniProt Q9BXF6),1.15 ± 0.077
10,UniProt Q9BUR4,1.14 ± 0.013
11,UniProt Q9BVC5 and related entries,0.938 ± 0.068
12,UniProt Q99714 and related entries,0.991 ± 0.011
13,OSBPL11 (UniProt Q9BXB4),1.01 ± 0.012
14,UniProt Q9BWG4 and related entries,0.9937 ± 0.0013
15,DESI2 (UniProt Q9BSY9),1 ± 0.034
16,PHF20 (UniProt Q9BVI0),1.12 ± 0.063
17,SORT1 (UniProt Q99523),0.929 ± 0.021
18,DOHH (UniProt Q9BU89),0.893 ± 0.14
19,UniProt Q9BY43 and related entries,1.01 ± 0.074

# Reference: the supplement of paper PMC6411743
